Source: publication PMC8191802
Results are given in words; binding and its absence hold for the method and conditions named. Binding seen in cells or lysates may run through a third protein. Here binding means that the protein was enriched with, or labelled near, the bait; the list need not be complete. For some of these results: A no says only that the protein was not detected with the bait. For some of these results: Tags and fused reporters may be left off the sequences shown. One block for each molecule: values may come before it.

Tests used:
FLAG-tagged YbeY (human) = molecular target: T1, FLAG-tagged YbeY (human) (UniProt P58557); assay: affinity purification with mass spectrometry; SILAC, reciprocal labelling; YbeY-FLAG in doxycycline-induced HEK293T cells against uninduced cells, mitochondria isolated and lysed, FLAG M2 affinity gel, elution with FLAG peptide, LC-MS/MS
T1 sequence: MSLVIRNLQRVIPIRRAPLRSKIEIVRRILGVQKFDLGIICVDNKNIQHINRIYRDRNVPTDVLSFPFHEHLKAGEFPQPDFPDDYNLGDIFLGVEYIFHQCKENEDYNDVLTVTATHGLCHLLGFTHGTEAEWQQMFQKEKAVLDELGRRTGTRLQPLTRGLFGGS

[1] = molecular target: T2, FLAG-tagged YbeY (human), P58557; assay: as above; settings: remark: other sources report otherwise
T2 chain: T1 sequence

[2] = molecular target: FLAG/Strep2-tagged p32/C1QBP (UniProt Q07021); assay: affinity purification with mass spectrometry; non-SILAC; FLAG/Strep2-tagged bait in induced cells, mitochondria isolated and lysed, FLAG M2 affinity gel, elution with FLAG peptide, eluate on SDS-PAGE, visible bands excised for mass spectrometry

Molecule: mL43 (human (endogenous in HEK293T))
binding (FLAG-tagged YbeY (human)): binds weakly

B2: endogenous YbeY (protein, UniProt P58557 1-167)
chain: T1 sequence
binding [2]: no binding

Results, then the molecule that gave them:

binding (FLAG-tagged YbeY (human)): binds
Molecule: uS11m (human (endogenous in HEK293T))

binding [1]: no binding
B1: p32/C1QBP, Q07021 74-282 (protein)
chain: LHTDGDKAFVDFLSDEIKEERKIQKHKTLPKMSGGWELELNGTEAKLVRKVAGEKITVTFNINNSIPPTFDGEEEPSQGQKVEEQEPELTSTPNFVVEVIKNDDGKKALVLDCHYPEDEVGQEDEAESDIFSIREVSFQSTGESEWKDTNYTLNTDSLDWALYDHLMDFLADRGVDNTFADELVELSTALEHQEYITFLEDLKSFVKSQ
